From US20160102139A1 (NATIONAL UNIVERSITY CORPORATION CHIBA UNIVERSITY, published 2016)
Changes are numbered by the printed parent chain. These are yes or no findings as the source states them, for the method shown. In cells and extracts the contact can be indirect. Some binding calls cover weakened binding; strength is not graded here. Tags and fused reporters may be left off the sequences shown.

Amino acid sequences for entries named in this document (tags omitted). A change or cut given only in a name is not applied to a line headed by its entry.
UniProt Q3THE2: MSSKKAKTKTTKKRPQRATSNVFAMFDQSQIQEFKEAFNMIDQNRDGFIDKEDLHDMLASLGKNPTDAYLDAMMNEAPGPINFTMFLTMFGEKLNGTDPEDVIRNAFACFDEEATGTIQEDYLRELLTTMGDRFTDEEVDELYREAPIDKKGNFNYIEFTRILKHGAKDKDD

Legend:
Assay in all cases: GST pulldown from bone marrow extract with anti-GST antibody, band identified by LC-MS/MS
[1] = biological target: T1, mouse Myl12a (myosin regulatory light chain polypeptide 12a) (mouse) (UniProt Q3THE2)
T1 sequence: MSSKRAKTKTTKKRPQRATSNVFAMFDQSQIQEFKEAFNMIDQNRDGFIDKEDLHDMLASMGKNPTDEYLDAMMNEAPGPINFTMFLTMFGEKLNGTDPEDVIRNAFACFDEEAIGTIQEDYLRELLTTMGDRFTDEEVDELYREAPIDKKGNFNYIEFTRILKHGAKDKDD

[2] = biological target: T2, mouse Myl12b (myosin regulatory light chain polypeptide 12b) (mouse) (UniProt Q3THE2)
T2 sequence: T1 sequence with R5K, M61L, E68A, I115T

[3] = biological target: T3, mouse Myl9 (myosin regulatory light chain polypeptide 9) (mouse) (UniProt Q9CQ19)
T3 sequence: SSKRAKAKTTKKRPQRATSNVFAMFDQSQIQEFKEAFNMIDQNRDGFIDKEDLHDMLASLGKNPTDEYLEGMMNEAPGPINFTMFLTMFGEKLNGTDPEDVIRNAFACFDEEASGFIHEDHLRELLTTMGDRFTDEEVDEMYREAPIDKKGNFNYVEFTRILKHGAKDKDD

binding [1]: binds | binding [2]: binds | binding [3]: binds
B1: fused protein of mouse CD69 extracellular domain protein and glutathione S-transferase (GST-mCD69EC) (receptor, UniProt P37217 62-199, looked up, not shown: a dimerising Fc or GST)
chain: NVGKYNCPGLYEKLESSDHHVATCKNEWISYKRTCYFFSTTTKSWALAQRSCSEDAATLAVIDSEKDMTFLKRYSGELEHWIGLKNEANQTWKWANGKEFNSWFNLTGSGRCVSVNHKNVTAVDCEANFHWVCSKPSR
